Further values from the same series stand in other lists.
Tested on: CHD
Test: Meta-analysis of CARE and WOSCOPS combined, synergy index, CHD endpoint
Type: in vivo, human
Text: Tables 4-5 provide meta-analyses of CARE and WOSCOPS combined (2nd section of each table) for two endpoints (CHD and CVD) and three genetic models (dominant, recessive, and additive), as well as logistic regression analyses of CARE (3rd section of each table) and WOSCOPS (4th section of each table) individually.
Tables 12 and 17 provide results of meta-analysis of the CARE and WOSCOPS sample sets combined by direct genotyping and by imputing genotypes.
“P” indicates the p-value, and “P(R)” (or “P.R.”) indicates the p-value random effect. Both of these are p-values corresponding to a statistical test of whether the combined synergy index is equal to one but use different assumptions to derive the p-value. “P” is calculated using a fixed effects model, and “P(R)” is calculated using a random effects model.
“OR” indicates the odds ratio (synergy index) calculated from a fixed effects model, and “OR(R)” (or “OR.R.”) indicates the odds ratio (synergy index) calculated from a random effects model.

[1] = SNP rs1868616, allele (A1) G, ADDITIVE, Imputed
[2] = SNP rs1874313, allele (A1) A, DOMINANT, Imputed
[3] = SNP rs1884902, allele (A1) C, RECESSIVE, Imputed
[4] = SNP rs1913201, allele (A1) G, ADDITIVE, Imputed
[5] = SNP rs1913201, allele (A1) G, DOMINANT, Imputed
[6] = SNP rs1913201, allele (A1) G, GENOTYPIC, Imputed
[7] = SNP rs1944279, allele (A1) A, ADDITIVE, Imputed
[8] = SNP rs1987179, allele (A1) T, DOMINANT, Imputed
[9] = SNP rs1990023, allele (A1) T, DOMINANT, Imputed
[10] = SNP rs2016194, allele (A1) G, DOMINANT, Imputed
[11] = SNP rs2024789, allele (A1) C, ADDITIVE, Imputed
[12] = SNP rs2024789, allele (A1) C, GENOTYPIC, Imputed
[13] = SNP rs2024902, allele (A1) A, ADDITIVE, Imputed
[14] = SNP rs2024902, allele (A1) A, DOMINANT, Imputed
[15] = SNP rs2025107, allele (A1) A, ADDITIVE, Imputed
[16] = SNP rs2025107, allele (A1) A, DOMINANT, Imputed
[17] = SNP rs2025108, allele (A1) T, ADDITIVE, Imputed
[18] = SNP rs2025108, allele (A1) T, DOMINANT, Imputed
[19] = SNP rs2062448, allele (A1) T, ADDITIVE, Imputed
[20] = SNP rs2062448, allele (A1) T, DOMINANT, Imputed
[21] = SNP rs2063591, allele (A1) C, ADDITIVE, Imputed
[22] = SNP rs2063591, allele (A1) C, DOMINANT, Imputed
[23] = SNP rs2065604, allele (A1) C, DOMINANT, Imputed
[24] = SNP rs2066238, allele (A1) T, DOMINANT, Imputed
[25] = SNP rs2068051, allele (A1) G, ADDITIVE, Imputed
[26] = SNP rs2068051, allele (A1) G, GENOTYPIC, Imputed
[27] = SNP rs2077702, allele (A1) G, GENOTYPIC, Genotyped
[28] = SNP rs2095586, allele (A1) A, DOMINANT, Imputed
[29] = SNP rs2108426, allele (A1) C, DOMINANT, Imputed
[30] = SNP rs2110664, allele (A1) A, DOMINANT, Imputed
[31] = SNP rs2132242, allele (A1) A, DOMINANT, Imputed
[32] = SNP rs2151644, allele (A1) T, DOMINANT, Imputed
[33] = SNP rs2157752, allele (A1) A, GENOTYPIC, Genotyped
[34] = SNP rs2158958, allele (A1) A, DOMINANT, Imputed
[35] = SNP rs2158961, allele (A1) G, DOMINANT, Imputed
[36] = SNP rs2164099, allele (A1) G, ADDITIVE, Imputed
[37] = SNP rs2173254, allele (A1) G, GENOTYPIC, Imputed
[38] = SNP rs2173254, allele (A1) G, RECESSIVE, Imputed
[39] = SNP rs2188079, allele (A1) C, ADDITIVE, Imputed
[40] = SNP rs2188079, allele (A1) C, GENOTYPIC, Imputed
[41] = SNP rs2190304, allele (A1) G, RECESSIVE, Imputed
[42] = SNP rs2190597, allele (A1) T, DOMINANT, Imputed
[43] = SNP rs2190598, allele (A1) T, DOMINANT, Imputed
[44] = SNP rs2190600, allele (A1) A, DOMINANT, Imputed
[45] = SNP rs16877387, allele (A1) C, GENOTYPIC, Imputed
[46] = SNP rs16877387, allele (A1) C, RECESSIVE, Imputed
[47] = SNP rs16938626, allele (A1) G, DOMINANT, Imputed
[48] = SNP rs16998821, allele (A1) C, DOMINANT, Imputed
[49] = SNP rs17007620, allele (A1) G, ADDITIVE, Imputed

In the case of `CC[C@H](C)C(=O)O[C@H]1C[C@H](O)C=C2C=C[C@H](C)[C@H](CC[C@@H](O)C[C@@H](O)CC(=O)O)[C@H]21` [Pravastatin, pravastatin], the OR [1] is reported as 0.6201, the “OR(R)” value [1] is reported as 0.6201 and the OR [2] is reported as 0.5922. For the same compound, the “OR(R)” value [2] was 0.5922, the OR [3] was 2.0651 and the “OR(R)” value [3] was 2.0651. The OR [4] was 0.7177, the “OR(R)” value [4] was 0.7177 and the OR [5] was 0.5843. The “OR(R)” value [5] was 0.5843, the OR [6] was 0.5555 and the “OR(R)” value [6] was 0.5555. The OR [7] was 1.5292, the “OR(R)” value [7] was 1.5292 and the OR [8] was 0.6885. For the same compound, the “OR(R)” value [8] was 0.6885, the OR [9] was 0.5675 and the “OR(R)” value [9] was 0.5675. The OR [10] was 0.5753, the “OR(R)” value [10] was 0.5753 and the OR [11] was 0.7001. The “OR(R)” value [11] was 0.7001, the OR [12] was 0.4935 and the “OR(R)” value [12] was 0.4935. The OR [13] was 2.1731, the “OR(R)” value [13] was 2.1731 and the OR [14] was 2.3955. The “OR(R)” value [14] was 2.3955, the OR [15] was 2.1211 and the “OR(R)” value [15] was 2.1211. For the same compound, the OR [16] was 2.4108, the “OR(R)” value [16] was 2.4108 and the OR [17] was 2.1211. For the same compound, the “OR(R)” value [17] was 2.1211, the OR [18] was 2.4108 and the “OR(R)” value [18] was 2.4108. For the same compound, the OR [19] was 0.4975, the “OR(R)” value [19] was 0.4975 and the OR [20] was 0.4776. The “OR(R)” value [20] was 0.4776, the OR [21] was 0.7439 and the “OR(R)” value [21] was 0.7439. The OR [22] was 0.5704, the “OR(R)” value [22] was 0.5704 and the OR [23] was 0.5093. The “OR(R)” value [23] was 0.5093, the OR [24] was 0.5711 and the “OR(R)” value [24] was 0.5711. For the same compound, the OR [25] was 0.6225, the “OR(R)” value [25] was 0.6225 and the OR [26] was 0.3895. The “OR(R)” value [26] was 0.3895, the OR [27] was 1.8705 and the “OR(R)” value [27] was 1.8705. For the same compound, the OR [28] was 1.6153, the “OR(R)” value [28] was 1.6079 and the OR [29] was 0.5744. The “OR(R)” value [29] was 0.5744, the OR [30] was 1.568 and the “OR(R)” value [30] was 1.568. The OR [31] was 0.6005, the “OR(R)” value [31] was 0.6005 and the OR [32] was 0.5083. For the same compound, the “OR(R)” value [32] was 0.5083, the OR [33] was 0.4178 and the “OR(R)” value [33] was 0.4178. For the same compound, the OR [34] was 0.5753, the “OR(R)” value [34] was 0.5753 and the OR [35] was 0.5806. For the same compound, the “OR(R)” value [35] was 0.5806, the OR [36] was 1.51 and the “OR(R)” value [36] was 1.51. For the same compound, the OR [37] was 0.3535, the “OR(R)” value [37] was 0.3535 and the OR [38] was 0.3802. The “OR(R)” value [38] was 0.3802, the OR [39] was 1.4883 and the “OR(R)” value [39] was 1.4883. For the same compound, the OR [40] was 2.2697, the “OR(R)” value [40] was 2.2697 and the OR [41] was 0.5028. The “OR(R)” value [41] was 0.5057, the OR [42] was 0.6352 and the “OR(R)” value [42] was 0.6427. For the same compound, the OR [43] was 0.5753, the “OR(R)” value [43] was 0.5753 and the OR [44] was 0.5759. For the same compound, the “OR(R)” value [44] was 0.5759, the OR [45] was 2.2411 and the “OR(R)” value [45] was 2.2411. The OR [46] was 2.2227, the “OR(R)” value [46] was 2.2227 and the OR [47] was 0.6116. The “OR(R)” value [47] was 0.6116, the OR [48] was 0.5728 and the “OR(R)” value [48] was 0.5728. For the same compound, the OR [49] was 1.6003 and the “OR(R)” value [49] was 1.6003.

Source: patent publication US10563263B2, “Genetic polymorphisms associated with statin response and cardiovascular diseases, methods of detection and uses thereof” (CELERA CORPORATION, priority 2010, dated 2020)
